PubChem BioAssay AID1259308 | NCATS | 2017

- Aim: 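Knock-downs that increase output of a recombinant reporter protein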 (primary screen)
- Cell system: human HEK293 embryonic kidney cells stably expressing firefly luciferase (HEK-CMV-Luc2-Hygro)
- Reagent: single siRNA against human genes, 0.8 pmol siRNA per well
- Timing: 72 h
- Detection: 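Luciferase light (ONE-Glo) measured on one replicate plate set and viability (CellTiter-Glo) on the other, scaled to a negative control siRNA, with robust z-scores and luciferase per cell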
- Direction: total luciferase, z-score and total luciferase, % of control: higher = more reporter protein produced; luciferase per cell, z-score: higher = more reporter output per viable cell; viable cells, % of control: higher = more viable cells
- Hit rule: 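Active when the median/MAD z-score for overall luciferase is greater than 3; a gene was taken forward for validation with new siRNAs if at least two of its three siRNAs passed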
- Calls: active = raised luciferase; inactive = no rise
In all, the deposit lists about 59,000 reagents; shown is an unselected part. Over the whole deposit, about 1,510 (2.6%) were called active. 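Calls use total luciferase alone and ignore viability, so some active siRNAs may act by altering cell number.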 Unmarked entries are inactive. The numbers tell different reagents against one gene apart.

| Gene | reagent no. | total luciferase, z-score | total luciferase, % of control | luciferase per cell, z-score | viable cells, % of control |
| --- | --- | --- | --- | --- | --- |
| TMED4 (transmembrane p24 trafficking protein 4) | 1 | -1.01 | 61.7 | -0.984 | 89.4 |
| TMED4 (transmembrane p24 trafficking protein 4) | 2 | -0.144 | 79 | 0.729 | 72.9 |
| TMED4 (transmembrane p24 trafficking protein 4) | 3 | 1.15 | 105 | 1.31 | 82.9 |
| ZNF385A (zinc finger protein 385A) | 1 | -1.4 | 54 | -1.39 | 87 |
| ZNF385A (zinc finger protein 385A) | 2 | 0.702 | 95.8 | 1.46 | 73 |
| ZNF385A (zinc finger protein 385A) | 3 | -2.44 | 33.4 | -2.39 | 70 |
| TRAF1 (TNF receptor associated factor 1) | 1 | -0.207 | 77.8 | -0.878 | 110 |
| TRAF1 (TNF receptor associated factor 1) | 2 | 2.58 | 133 | 1.91 | 89.9 |
| TRAF1 (TNF receptor associated factor 1) | 3 | -0.497 | 72 | -0.456 | 90.7 |
| DENND5A (DENN domain containing 5A) | 1 | -0.29 | 76.1 | 0.405 | 76.4 |
| DENND5A (DENN domain containing 5A) | 2 | 0.298 | 87.8 | 0.128 | 94.9 |
| DENND5A (DENN domain containing 5A) | 3 | 1.18 | 105 | 1.38 | 82 |
| ENO2 (enolase 2) | 1 | -0.203 | 77.8 | -0.464 | 98.3 |
| ENO2 (enolase 2) | 2 | -1.42 | 53.7 | -1 | 78.2 |
| ENO2 (enolase 2) | 3 | -2.11 | 39.9 | -2.18 | 79.1 |
| GABRB3 (gamma-aminobutyric acid type A receptor subunit beta3) | 1 | 1.05 | 103 | 0.211 | 109 |
| GABRB3 (gamma-aminobutyric acid type A receptor subunit beta3) | 2 | -0.684 | 68.3 | -1.58 | 116 |
| GABRB3 (gamma-aminobutyric acid type A receptor subunit beta3) | 3 | -1.32 | 55.5 | -0.295 | 67.1 |
| DCAF12 (DDB1 and CUL4 associated factor 12) | 1 | -0.586 | 70.2 | -1.04 | 103 |
| DCAF12 (DDB1 and CUL4 associated factor 12) | 2 | 0.663 | 95.1 | 0.497 | 93.2 |
| DCAF12 (DDB1 and CUL4 associated factor 12) | 3 | 0.824 | 98.3 | 0.228 | 103 |
| TAF9 (TATA-box binding protein associated factor 9) | 1 | -0.598 | 70 | -1.82 | 126 |
| TAF9 (TATA-box binding protein associated factor 9) | 2 | -0.744 | 67.1 | 0.0556 | 73.9 |
| TAF9 (TATA-box binding protein associated factor 9) | 3 | -1.03 | 61.4 | -0.927 | 87.6 |
| SMO (smoothened, frizzled class receptor) | 1 | -0.0991 | 79.9 | -0.284 | 96.2 |
| SMO (smoothened, frizzled class receptor) | 2 | -0.0773 | 80.3 | 0.351 | 81.9 |
| SMO (smoothened, frizzled class receptor) | 3 | 0.0578 | 83 | -0.112 | 95.6 |
| C2CD4C (C2 calcium dependent domain containing 4C) | 1 | 0.556 | 92.9 | 1.29 | 74 |
| C2CD4C (C2 calcium dependent domain containing 4C) | 2 | -1.23 | 57.5 | -1.21 | 88.3 |
| C2CD4C (C2 calcium dependent domain containing 4C) | 3 | -1.41 | 53.9 | -0.205 | 63.6 |
| TAGLN2 (transgelin 2) | 1 | 0.783 | 97.5 | 0.0874 | 106 |
| TAGLN2 (transgelin 2) | 2 | 0.179 | 85.4 | 0.299 | 88.2 |
| TAGLN2 (transgelin 2) | 3 | 0.509 | 92 | -0.344 | 113 |
| CNKSR2 (connector enhancer of kinase suppressor of Ras 2) | 1 | 1.24 | 107 | 1.46 | 81 |
| CNKSR2 (connector enhancer of kinase suppressor of Ras 2) | 2 | -0.153 | 78.8 | -0.217 | 93.3 |
| CNKSR2 (connector enhancer of kinase suppressor of Ras 2) | 3 | -2.07 | 40.7 | -2.27 | 82.7 |
| TIGD3 (tigger transposable element derived 3) | 1 | -1.7 | 48 | -1.6 | 81.8 |
| TIGD3 (tigger transposable element derived 3) | 2 | -1.63 | 49.4 | -1.21 | 75.9 |
| TIGD3 (tigger transposable element derived 3) | 3 | 0.338 | 88.6 | 0.687 | 82.6 |
| OVCH2 (ovochymase 2) | 1 | 0.304 | 87.9 | 0.34 | 89.8 |
| OVCH2 (ovochymase 2) | 2 | -1.17 | 58.5 | -1.19 | 89.6 |
| OVCH2 (ovochymase 2) | 3 | -0.378 | 74.4 | -0.52 | 95.3 |
| STON1 (stonin 1) | 1 | -0.874 | 64.5 | -0.613 | 84.7 |
| STON1 (stonin 1) | 2 | -0.0308 | 81.3 | 0.482 | 80 |
| STON1 (stonin 1) | 3 | -1.74 | 47.3 | -2.28 | 96.2 |
| TNFRSF11A (TNF receptor superfamily member 11a) | 1 | -0.0189 | 81.5 | -0.588 | 106 |
| TNFRSF11A (TNF receptor superfamily member 11a) | 2 | -1.96 | 42.9 | -1.08 | 63.7 |
| TNFRSF11A (TNF receptor superfamily member 11a) | 3 | -0.832 | 65.3 | -0.587 | 85.2 |
| PSTPIP2 (proline-serine-threonine phosphatase interacting protein 2) | 1 | -0.2 | 77.9 | 0.095 | 84.9 |
| PSTPIP2 (proline-serine-threonine phosphatase interacting protein 2) | 2 | -0.129 | 79.3 | -0.525 | 102 |
| PSTPIP2 (proline-serine-threonine phosphatase interacting protein 2) | 3 | 1.45 | 111 | 0.563 | 107 |
| SNX17 (sorting nexin 17) | 1 | 0.717 | 96.1 | 0.674 | 89.9 |
| SNX17 (sorting nexin 17) | 2 | 0.0591 | 83.1 | 0.352 | 84.6 |
| SNX17 (sorting nexin 17) | 3 | 0.295 | 87.8 | -0.181 | 103 |
| CTNNA3 (catenin alpha 3) | 1 | 1.01 | 102 | 0.772 | 93 |
| CTNNA3 (catenin alpha 3) | 2 | -0.474 | 72.5 | 0.054 | 79.8 |
| CTNNA3 (catenin alpha 3) | 3 | -1.25 | 57 | -1.9 | 105 |

Part of the list above, set out differently:
{"Gene": "DCAF12 (DDB1 and CUL4 associated factor 12)", "reagent no.": 3, "total luciferase, z-score": 0.824, "total luciferase, % of control": 98.3, "luciferase per cell, z-score": 0.228, "viable cells, % of control": 103}
{"Gene": "TAF9 (TATA-box binding protein associated factor 9)", "reagent no.": 1, "total luciferase, z-score": -0.598, "total luciferase, % of control": 70, "luciferase per cell, z-score": -1.82, "viable cells, % of control": 126}
{"Gene": "TAF9 (TATA-box binding protein associated factor 9)", "reagent no.": 2, "total luciferase, z-score": -0.744, "total luciferase, % of control": 67.1, "luciferase per cell, z-score": 0.0556, "viable cells, % of control": 73.9}
{"Gene": "TAF9 (TATA-box binding protein associated factor 9)", "reagent no.": 3, "total luciferase, z-score": -1.03, "total luciferase, % of control": 61.4, "luciferase per cell, z-score": -0.927, "viable cells, % of control": 87.6}
{"Gene": "SMO (smoothened, frizzled class receptor)", "reagent no.": 1, "total luciferase, z-score": -0.0991, "total luciferase, % of control": 79.9, "luciferase per cell, z-score": -0.284, "viable cells, % of control": 96.2}
{"Gene": "SMO (smoothened, frizzled class receptor)", "reagent no.": 2, "total luciferase, z-score": -0.0773, "total luciferase, % of control": 80.3, "luciferase per cell, z-score": 0.351, "viable cells, % of control": 81.9}
{"Gene": "SMO (smoothened, frizzled class receptor)", "reagent no.": 3, "total luciferase, z-score": 0.0578, "total luciferase, % of control": 83, "luciferase per cell, z-score": -0.112, "viable cells, % of control": 95.6}
{"Gene": "C2CD4C (C2 calcium dependent domain containing 4C)", "reagent no.": 1, "total luciferase, z-score": 0.556, "total luciferase, % of control": 92.9, "luciferase per cell, z-score": 1.29, "viable cells, % of control": 74}
{"Gene": "C2CD4C (C2 calcium dependent domain containing 4C)", "reagent no.": 2, "total luciferase, z-score": -1.23, "total luciferase, % of control": 57.5, "luciferase per cell, z-score": -1.21, "viable cells, % of control": 88.3}
